Legend:
[1] = Perturbation of the absorption spectrum of pyrroloquinoline quinone; conditions: for perturbation of the PQQ spectrum: aerobic; for perturbation of the PQQ spectrum under anaerobic conditions: anaerobic / nitrogen-purged; for perturbation of the PQQ spectrum by monoamines: 5 mM, corresponding conditions
[2] = Release of H2O2 on oxidation of cis-DACH by limiting PQQ; conditions: for Ratio H2O2/Oxidant / H2O2 Released: 1 mM cis-DACH; for H2O2 Released: maximal release
[3] = Release of 3H+ from [1,2-3H]DACH by limiting PQQ; conditions: for Ratio ^3 H^+/Oxidant / ^3 H^+ Released: 1 mM [^3 H]DACH; for ^3 H^+ Released: pH 8, 37°C, maximum level
[4] = PQQ as oxidant, mean of 4 amounts

Q: Which results are given for NCCN [EDA, Ethylenediamine]?
A: perturbation of the PQQ spectrum [1]: same spectral changes in free PQQ as was true of cis-DACH; perturbation of the PQQ spectrum under anaerobic conditions [1]: markedly reduced

Q: Which results are given for N[C@@H]1CCCC[C@@H]1N [cis-DACH, 1,2-Diaminocyclohexane]?
A: perturbation of the PQQ spectrum [1]: markedly perturbed; perturbation of the PQQ spectrum under anaerobic conditions [1]: relatively small spectral changes; Ratio H2O2/Oxidant ([2]; 13.2 nanomoles PQQ): 1.08; H2O2 Released ([2]; 13.2 nanomoles PQQ): 14.2 nmol; Ratio H2O2/Oxidant ([2]; 26.4 nanomoles PQQ): 0.93; H2O2 Released ([2]; 26.4 nanomoles PQQ): 24.6 nmol; Ratio H2O2/Oxidant ([2]; 52.8 nanomoles PQQ): 0.97; H2O2 Released ([2]; 52.8 nanomoles PQQ): 51.2 nmol; Ratio H2O2/Oxidant ([2]; 79.2 nanomoles PQQ): 0.95; H2O2 Released ([2]; 79.2 nanomoles PQQ): 74.9 nmol; Ratio H2O2/Oxidant, mean [2, 4]: 0.98 ± 0.07

Q: With CCCCCCN [n-hexylamine, reference compound] as the molecule, how does the “perturbation of the PQQ spectrum by monoamines” value [1] read?
A: Its value is “did not perturb”.

Q: With [3H]C1(N)CCCCC1([3H])N (centres unmarked) [[1,2-^3 H]DACH, [1,2-^3 H]-1,2-diaminocyclohexane] as the molecule, how does the “Ratio ^3 H^+/Oxidant” value ([3]; 2.1 nanomoles PQQ) read?
A: Its value is 2.43.

Q: What about the “^3 H^+ Released” value ([3]; 2.1 nanomoles PQQ) of the same molecule?
A: Its value is 5.1 Nanomoles.

Q: And the “Ratio ^3 H^+/Oxidant” value ([3]; 4.0 nanomoles PQQ)?
A: Its value is 2.30.

Q: And the “^3 H^+ Released” value ([3]; 4.0 nanomoles PQQ)?
A: The value was 9.0 Nanomoles.

Q: What about the “Ratio ^3 H^+/Oxidant” value ([3]; 6.0 nanomoles PQQ) of the same molecule?
A: The value was 2.17.

Q: And the “^3 H^+ Released” value ([3]; 6.0 nanomoles PQQ)?
A: The value was 13.0 Nanomoles.

Q: And the “Ratio ^3 H^+/Oxidant” value ([3]; 7.5 nanomoles PQQ)?
A: Its value is 2.29.

Q: What about the “^3 H^+ Released” value ([3]; 7.5 nanomoles PQQ) of the same molecule?
A: The value was 17.2 Nanomoles.

Q: And the “Ratio ^3 H^+/Oxidant, mean” value [3, 4]?
A: Its value is 2.3 ± 0.11.

Q: What about the “^3 H^+ released per mole of PQQ” value ([3]; limiting PQQ) of the same molecule?
A: Its value is 2.30 moles of ^3 H^+ released per mole of PQQ.

Q: With NC1CCCCC1 [cyclohexylamine, reference compound] as the molecule, how does the “perturbation of the PQQ spectrum by monoamines” value [1] read?
A: Its value is “did not perturb”.

Q: For N[C@@H]1CCCC[C@H]1N (relative stereo) [trans-DACH, 1,2-Diaminocyclohexane, reference compound], which “perturbation of the PQQ spectrum” value [1] is on record?
A: Its value is “relatively little change”.
